According to ChEMBL document CHEMBL4316593 (Eur J Med Chem, 2019):
Further values from the same series stand in other lists.

Key:
Format in all cases: cell-based
Conditions in all cases: U-87MG ATCC
[1] = Inhibition of RTK/PI3K/AKT/mTOR signaling in human U87 cells assessed as down regulation of WWP2 gene expression at cytotoxic IC50 measured after 48 hrs relative to control
[2] = Inhibition of RTK/PI3K/AKT/mTOR signaling in human U87 cells assessed as up regulation of pleckstrin homology and RhoGEF domain containing G1 gene expression at cytotoxic IC50 measured after 48 hrs relative to control
[3] = Inhibition of RTK/PI3K/AKT/mTOR signaling in human U87 cells assessed as up regulation of coiled-coil domain containing 57 gene expression at cytotoxic IC50 measured after 48 hrs relative to control
[4] = Inhibition of RTK/PI3K/AKT/mTOR signaling in human U87 cells assessed as up regulation of KIAA2013 gene expression at cytotoxic IC50 measured after 48 hrs relative to control
[5] = Inhibition of RTK/PI3K/AKT/mTOR signaling in human U87 cells assessed as down regulation of ATP6V1D gene expression at cytotoxic IC50 measured after 48 hrs relative to control
[6] = Inhibition of RTK/PI3K/AKT/mTOR signaling in human U87 cells assessed as up regulation of TMEM57 gene expression at cytotoxic IC50 measured after 48 hrs relative to control
[7] = Inhibition of RTK/PI3K/AKT/mTOR signaling in human U87 cells assessed as down regulation of KDM5C gene expression at cytotoxic IC50 measured after 48 hrs relative to control
[8] = Inhibition of RTK/PI3K/AKT/mTOR signaling in human U87 cells assessed as down regulation of RRM1 gene expression at cytotoxic IC50 measured after 48 hrs relative to control
[9] = Inhibition of RTK/PI3K/AKT/mTOR signaling in human U87 cells assessed as up regulation of solute carrier family 7 member 5 gene expression at cytotoxic IC50 measured after 48 hrs relative to control
[10] = Inhibition of RTK/PI3K/AKT/mTOR signaling in human U87 cells assessed as down regulation of UBR2 gene expression at cytotoxic IC50 measured after 48 hrs relative to control
[11] = Inhibition of RTK/PI3K/AKT/mTOR signaling in human U87 cells assessed as up regulation of protein phosphatase 3 catalytic subunit beta gene expression at cytotoxic IC50 measured after 48 hrs relative to control
[12] = Inhibition of RTK/PI3K/AKT/mTOR signaling in human U87 cells assessed as up regulation of McKusick-Kaufman syndrome gene expression at cytotoxic IC50 measured after 48 hrs relative to control
[13] = Inhibition of RTK/PI3K/AKT/mTOR signaling in human U87 cells assessed as down regulation of EIF1AD gene expression at cytotoxic IC50 measured after 48 hrs relative to control
[14] = Inhibition of RTK/PI3K/AKT/mTOR signaling in human U87 cells assessed as up regulation of tetratricopeptide repeat domain 17 gene expression at cytotoxic IC50 measured after 48 hrs relative to control
[15] = Inhibition of RTK/PI3K/AKT/mTOR signaling in human U87 cells assessed as up regulation of PDGFRL gene expression at cytotoxic IC50 measured after 48 hrs relative to control
[16] = Inhibition of RTK/PI3K/AKT/mTOR signaling in human U87 cells assessed as up regulation of ERI1 gene expression at cytotoxic IC50 measured after 48 hrs relative to control
[17] = Inhibition of RTK/PI3K/AKT/mTOR signaling in human U87 cells assessed as up regulation of Rho/Rac guanine nucleotide exchange factor 2 gene expression at cytotoxic IC50 measured after 48 hrs relative to control
[18] = Inhibition of RTK/PI3K/AKT/mTOR signaling in human U87 cells assessed as up regulation of 1-acylglycerol-3-phosphate O-acyltransferase 4 gene expression at cytotoxic IC50 measured after 48 hrs relative to control
[19] = Inhibition of RTK/PI3K/AKT/mTOR signaling in human U87 cells assessed as up regulation of STT3A gene expression at cytotoxic IC50 measured after 48 hrs relative to control
[20] = Inhibition of RTK/PI3K/AKT/mTOR signaling in human U87 cells assessed as up regulation of RB transcriptional corepressor like 2 gene expression at cytotoxic IC50 measured after 48 hrs relative to control
[21] = Inhibition of RTK/PI3K/AKT/mTOR signaling in human U87 cells assessed as up regulation of DLX4 gene expression at cytotoxic IC50 measured after 48 hrs relative to control
[22] = Inhibition of RTK/PI3K/AKT/mTOR signaling in human U87 cells assessed as down regulation of BRD7 gene expression at cytotoxic IC50 measured after 48 hrs relative to control
[23] = Inhibition of RTK/PI3K/AKT/mTOR signaling in human U87 cells assessed as down regulation of CDCA5 gene expression at cytotoxic IC50 measured after 48 hrs relative to control
[24] = Inhibition of RTK/PI3K/AKT/mTOR signaling in human U87 cells assessed as up regulation of round spermatid basic protein 1 gene expression at cytotoxic IC50 measured after 48 hrs relative to control
[25] = Inhibition of RTK/PI3K/AKT/mTOR signaling in human U87 cells assessed as up regulation of solute carrier family 37 member 4 gene expression at cytotoxic IC50 measured after 48 hrs relative to control
[26] = Inhibition of RTK/PI3K/AKT/mTOR signaling in human U87 cells assessed as down regulation of FEM1B gene expression at cytotoxic IC50 measured after 48 hrs relative to control
[27] = Inhibition of RTK/PI3K/AKT/mTOR signaling in human U87 cells assessed as up regulation of myosin XVB gene expression at cytotoxic IC50 measured after 48 hrs relative to control
[28] = Inhibition of RTK/PI3K/AKT/mTOR signaling in human U87 cells assessed as down regulation of TUBA1A gene expression at cytotoxic IC50 measured after 48 hrs relative to control
[29] = Inhibition of RTK/PI3K/AKT/mTOR signaling in human U87 cells assessed as up regulation of prolyl 4-hydroxylase subunit beta gene expression at cytotoxic IC50 measured after 48 hrs relative to control
[30] = Inhibition of RTK/PI3K/AKT/mTOR signaling in human U87 cells assessed as down regulation of RNF4 gene expression at cytotoxic IC50 measured after 48 hrs relative to control
[31] = Inhibition of RTK/PI3K/AKT/mTOR signaling in human U87 cells assessed as up regulation of IVD gene expression at cytotoxic IC50 measured after 48 hrs relative to control
[32] = Inhibition of RTK/PI3K/AKT/mTOR signaling in human U87 cells assessed as down regulation of ABCB1 gene expression at cytotoxic IC50 measured after 48 hrs relative to control

**Q.** Which results are given for `CC(=O)C(=NNc1ccccc1C#N)C(C)=O`?
**A.** log2FC [1]: -0.536; log2FC [2]: 0.727; log2FC [3]: 1.01; log2FC [4]: 0.687; log2FC [5]: -1.1; log2FC [6]: 0.638; log2FC [7]: -0.584; log2FC [8]: -0.564; log2FC [9]: 1.02; log2FC [10]: -0.567; log2FC [11]: 0.887; log2FC [12]: 1.07; log2FC [13]: -0.523; log2FC [14]: 0.701; log2FC [15]: 2.18; log2FC [16]: 0.586; log2FC [17]: 1.2; log2FC [18]: 1.17; log2FC [19]: 1.61; log2FC [20]: 1.03; log2FC [21]: 1.85; log2FC [22]: -0.833; log2FC [23]: -1.2; log2FC [24]: 0.686; log2FC [25]: 0.857; log2FC [26]: -0.657; log2FC [27]: 1.39; log2FC [28]: -0.812; log2FC [29]: 0.972; log2FC [30]: -0.491; log2FC [31]: 0.581; log2FC [32]: -1.61
